Laboratory results as given in the supplement of paper PMC12764529.
± gives the half width of the 95% confidence interval. The two proteases of the assay disagree for many of these sequences.

Columns and labels:
[1] = folding stability dG unfold from chymotrypsin proteolysis; higher = more stable
Outline: (§1)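 Sequencing followed digestion of designed mini-proteins with trypsin and chymotrypsin, each at 11 concentrations in threefold dilutions together with a no-protease condition. The mini-proteins were under 80 residues, had no cysteine, sat in a PA-tagged cDNA display construct, and were kept only if AlphaFold2 dimer inter-PAE was above 15. From the counts, Bayesian fitting gave K50, and unfolding free energy was derived against a sequence-predicted unfolded-state K50 and a shared folded-state K50, per protease or combined.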

[2] = folding stability dG unfold from trypsin proteolysis; higher = more stable
Outline: as §1

[3] = folding stability dG unfold (combined trypsin and chymotrypsin); higher = more stable
Outline: as §1

| Sequence | folding stability dG unfold [1] [kcal/mol] | folding stability dG unfold [2] [kcal/mol] | folding stability dG unfold [3] [kcal/mol] |
| --- | --- | --- | --- |
| SAGGSAGGSMYYLVKVKRKDGKEETFVFELPEPAKIEDLLPPELEVVEIKPFASKEEALKAAKSAGGSAGGS [r20_18_TrMRF] | 5.01 ± 0.059 | 2.41 ± 0.052 | 4.78 ± 0.09 |
| SAGGSAGGSAGGSDNKAILGDVPIKFYDKNGKPVITAKIGYFPDGRVVIYFPDGSKIEASAGGSAGGSAGGS [r10_972_TrMRF] | 1.04 ± 0.023 | 1.48 ± 0.04 | 1.25 ± 0.038 |
| SAGGSAGGSAGGSWILIPIPNGYLFIIRITFVWPTPNGKPYEPEIDIHIMPAEDLEDFISAGGSAGGSAGGS [r4_238_TrROS] | 5.52 ± 0.24 | 3.48 ± 0.23 | 5.01 ± 0.35 |
| SAGGMVEITATVGSPDPSLTDEEIAERILKELGLDPEIVEVTFLERRLVPDAAGRVRVVVEMKFLVPEKSAG [r5_528_JUSTAS] | 4.26 ± 0.16 | 4.77 ± 0.21 | 4.73 ± 0.19 |
| SAGGMVRVKATFLKKIGDRWETVTVDIVTDDPEEGIAAAKARAEAEGWELLEVTIYPTGDPEVAEKAASAGG [r13_949_JUSTAS] | 5.22 ± 0.14 | 2.37 ± 0.071 | 4.73 ± 0.13 |
| WRIRVEIEMYNPDGDPMEMEIQIPVDKLQELRQEGEPFTKEELVDEIVEIIRDMMPEHGMPIEIKIVEIVPS [r1_174_TrROS] | 1.76 ± 0.074 | 1.64 ± 0.051 | 1.76 ± 0.2 |
| SAGGSAGGSSPDWSVKKSTVTVTITFPEEKYFEPETKKEVAKRPVITIEIEIEVVETLPASLISAGGSAGGS [r12_600_JUSTAS] | 1.44 ± 0.096 | 1.65 ± 0.067 | 1.63 ± 0.19 |
| SAGGSAGGKKIKIEIIYDKENNKLYIYVVDENTKKVYRYEFNKNGKLIKVEPVKEVKPGEVIPLSAGGSAGG [r6_148_TrROS_Hall] | 2.49 ± 0.16 | 1.96 ± 0.15 | 2.32 ± 0.22 |
| SAGGSAGGSATATLRLRAPVRIRTRVTTLDDGVPTTRTETATVYVDVEIEVLPDLDPDDPRVVSAGGSAGGS [r12_713_TrMRF] | 2.594 ± 0.02 | 0.0198 ± 0.14 | 1.86 ± 0.093 |
| SAGGSAGGSAGGMEIIEKEETLDEETLKKLEEEGVPKSEATVKVTEVIYKEEYPEEGLKSAGGSAGGSAGGS [r10_1149_JUSTAS] | -0.692 ± 0.28 | 0.359 ± 0.072 | -0.137 ± 0.34 |
| SAMTKIEVEVYKPEPGRYVVTVNIRPEGTEEEIPFTVEAPPEAAEEILEALKEAFPDLEIDRIEPRYAPSAG [r14_969_TrMRF] | 1.09 ± 0.066 | -1.08 ± 0.36 | 0.547 ± 0.11 |
| SAGGSAGGNSAYIFIPITMPIKFKWEYDPDGKPEPREMEMKIRVYIAIRIDPPDGKIRDIGLFFSAGGSAGG [r6_424_TrROS] | 6.33 ± 0.97 | 3.01 ± 0.085 | > 6 |
| SAGGSAGGSAGGDPDGKPPKIDIEVYEIPFTMTMNDPDGPMRRMPMTITFLRIEIEDDASAGGSAGGSAGGS [r10_643_TrROS] | 3.74 ± 0.24 | 1.28 ± 0.16 | 2.71 ± 0.39 |
| SAGGSAGGSGMTTTLTTEPRPDSTVVTTTTTTPTSVTTTTTVYDPDGNVVSTTTTTTPLPATSSAGGSAGGS [r12_710_JUSTAS] | 0.257 ± 0.018 | 1.73 ± 0.059 | 1.11 ± 0.028 |
| SPVQVKIEPPNGQRITWWFPPGGTVKEAKEQMRDMLQRALPPNLKIDVDKIDPGKPIEPGEPVRVEVRVKSA [r9_178_TrROS] | 0.255 ± 0.82 | 2.68 ± 0.15 | 0.964 ± 0.39 |
| SAGSKTITKTYDFGEYTVKVEATYYPEKEGKVEIKITFYKKNNKPIKEIKIEIKASPDDKEVKEFLEKLSAG [r5_958_TrMRF] | 4.49 ± 0.22 | 2.25 ± 0.23 | 4.26 ± 0.56 |
| SAGGKKPKVKITAKVTKVTVTKNEDGTYTVTVYVNGKPVATFTFSKEELDKLLKSLKPGDTVEITLESAGGS [r8_41_TrROS_Hall] | 4.76 ± 0.14 | 1.58 ± 0.058 | 4.53 ± 0.21 |
| SAGGSAGGMTLEFTDYTPEEMEKIKKEVEEFAKKNNIKVEIKTEKLPNGKTKMTITITPNKKKKSAGGSAGG [r6_907_JUSTAS] | 3.79 ± 0.083 | 0.887 ± 0.034 | 3.29 ± 0.071 |
| SAGGSAGGSAGYGYIVITFKFNYPRLDPDNGKLETFTVEVTIWIPIPPPPPPPPNDPEGKSAGGSAGGSAGG [r17_493_TrROS] | 5.25 ± 0.19 | 2.22 ± 0.22 | 4.8 ± 0.37 |
| SASITIPVDELKDFAEHFPGFNVGVNPETGMFQIFFPENGWMINIDIEVDPDDPDTIEIDIEIYPMPPNSAG [r14_604_TrROS] | 2.96 ± 0.15 | 1.78 ± 0.13 | 2.57 ± 0.37 |
| SAGGSAGGSAEVIDKPFDEVLEELGVSPENVEWEPLEDGGWIARLPNGKPVLLVVPPELAASAGGSAGGSAG [r3_477_TrMRF] | 1.34 ± 0.026 | -1.16 ± 0.34 | 1 ± 0.059 |

Exported bar-delimited: entries from further up.
Sequence | folding stability dG unfold [1] [kcal/mol] | folding stability dG unfold [2] [kcal/mol] | folding stability dG unfold [3] [kcal/mol]
SAGGSAGGSATATLRLRAPVRIRTRVTTLDDGVPTTRTETATVYVDVEIEVLPDLDPDDPRVVSAGGSAGGS [r12_713_TrMRF] | 2.594 ± 0.02 | 0.0198 ± 0.14 | 1.86 ± 0.093
SAGGSAGGSAGGMEIIEKEETLDEETLKKLEEEGVPKSEATVKVTEVIYKEEYPEEGLKSAGGSAGGSAGGS [r10_1149_JUSTAS] | -0.692 ± 0.28 | 0.359 ± 0.072 | -0.137 ± 0.34
SAGGSAGGNSAYIFIPITMPIKFKWEYDPDGKPEPREMEMKIRVYIAIRIDPPDGKIRDIGLFFSAGGSAGG [r6_424_TrROS] | 6.33 ± 0.97 | 3.01 ± 0.085 | > 6
SAGGKKPKVKITAKVTKVTVTKNEDGTYTVTVYVNGKPVATFTFSKEELDKLLKSLKPGDTVEITLESAGGS [r8_41_TrROS_Hall] | 4.76 ± 0.14 | 1.58 ± 0.058 | 4.53 ± 0.21
SAGGSAGGMTLEFTDYTPEEMEKIKKEVEEFAKKNNIKVEIKTEKLPNGKTKMTITITPNKKKKSAGGSAGG [r6_907_JUSTAS] | 3.79 ± 0.083 | 0.887 ± 0.034 | 3.29 ± 0.071
SASITIPVDELKDFAEHFPGFNVGVNPETGMFQIFFPENGWMINIDIEVDPDDPDTIEIDIEIYPMPPNSAG [r14_604_TrROS] | 2.96 ± 0.15 | 1.78 ± 0.13 | 2.57 ± 0.37
